According to patent publication US20130216529A1 (TALIGEN THERAPEUTICS, published 2013):
These are yes or no findings as the source states them, for the method shown. Some entries that bind do so weakly or less than the wild type.

Chains of the proteins cited; added tags and fusions are not shown. Lines headed by an entry give the natural chain unless they say otherwise; changes in a name come on top.
UniProt P00751: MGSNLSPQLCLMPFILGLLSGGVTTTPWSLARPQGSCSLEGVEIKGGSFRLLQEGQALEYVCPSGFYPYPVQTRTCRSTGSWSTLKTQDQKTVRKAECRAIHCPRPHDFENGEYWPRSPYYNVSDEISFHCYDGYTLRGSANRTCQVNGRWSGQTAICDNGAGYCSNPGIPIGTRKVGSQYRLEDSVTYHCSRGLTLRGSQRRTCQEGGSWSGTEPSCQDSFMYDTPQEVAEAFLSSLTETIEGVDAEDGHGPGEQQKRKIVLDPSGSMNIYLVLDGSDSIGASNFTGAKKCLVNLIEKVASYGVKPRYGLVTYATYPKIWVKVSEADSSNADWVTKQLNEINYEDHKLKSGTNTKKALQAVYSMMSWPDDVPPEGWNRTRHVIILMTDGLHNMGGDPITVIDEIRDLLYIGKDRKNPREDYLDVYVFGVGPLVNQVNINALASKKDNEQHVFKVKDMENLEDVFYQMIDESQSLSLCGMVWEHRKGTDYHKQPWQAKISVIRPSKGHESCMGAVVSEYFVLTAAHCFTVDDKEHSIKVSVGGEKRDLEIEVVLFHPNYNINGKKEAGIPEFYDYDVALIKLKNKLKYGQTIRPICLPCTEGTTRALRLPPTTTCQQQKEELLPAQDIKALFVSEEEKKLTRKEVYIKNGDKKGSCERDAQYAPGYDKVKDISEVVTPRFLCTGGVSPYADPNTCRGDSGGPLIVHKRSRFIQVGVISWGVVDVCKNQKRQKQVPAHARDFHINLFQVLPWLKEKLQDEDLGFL

Key:
[1] = biological target: T1, recombinant human factor B (human, UniProt P00751 26-764, biotinylated (EZ-link) in the Octet assay only; sites not stated); test: ELISA, factor B coated on plate
T1 construct: also called purified factor B protein

[2] = biological target: T1, recombinant human factor B; test: dilution ELISA, factor B coated at 100, 50, 25 and 12.5 ng/well, Fab 0.1-200 nM [upper panel]
[3] = biological target: T1, recombinant human factor B; test: dilution ELISA, factor B coated on plate
[4] = biological target: T1, recombinant human factor B; test: dilution ELISA, factor B coated at 100, 50, 25 and 12.5 ng/well, Fab 0.1-200 nM [lower panel]

| Binder | binding [1] | binding [2] | binding [3] | binding [4] |
| --- | --- | --- | --- | --- |
| cloned Fab' TA003 (Fab, V domains shown, No sentence ties the name TA003 to these numbers directly; also called the cloned Fab'; purified Fab' protein (cloned V-regions from the hybridoma producing mAb 1379)) VH: EVQLQQSGPELVKPGASVKIPCKASGYTFTDYNMDWVKQSHGKSLEWIGDINPNNGGTIYNQKFKGKATLTVDKSSSTAYMELRSLTSEDTAVYYCARGYYSNSAWFAYWGQGTLVTVSA VL: DIVMSQSPSSLAVSAGEKVTMSCKSSQSLLNSRTRKNYLAWYQQKPGQSPKLLIYWASTRESGVPDRFTGSGSGTDFTLTISSVQAEDLAVYYCKQSYNLPWTFGGGTKLEIKR | binds | binds | binds |  |
| Fab' derived from mAb 1379 by papain digestion (Fab, V domains shown, Papain fragment of the murine IgG1 kappa hybridoma antibody mAb 1379 (ATCC PTA-6230); also called murine Fab) VH: EVQLQQSGPELVKPGASVKIPCKASGYTFTDYNMDWVKQSHGKSLEWIGDINPNNGGTIYNQKFKGKATLTVDKSSSTAYMELRSLTSEDTAVYYCARGYYSNSAWFAYWGQGTLVTVSA VL: DIVMSQSPSSLAVSAGEKVTMSCKSSQSLLNSRTRKNYLAWYQQKPGQSPKLLIYWASTRESGVPDRFTGSGSGTDFTLTISSVQAEDLAVYYCKQSYNLPWTFGGGTKLEIKR |  |  | binds | binds |
